Results as given in PubChem BioAssay AID504847 (National Center for Advancing Translational Sciences (NCATS), 2011).
Several values for one entry are separate records, joined by “and”; a condition that tells them apart may be missing. Equal values may be shown once. Out of some 400,000 compounds screened, about 3,700 (0.93%) were called active. Inconclusive results, whose numbers are uncertain, are shown with a selection of clear calls. Calls come from the whole dose curve; as a rule, active = well fitted inhibition curve with a large enough effect; inconclusive = small, poorly fitted or top-dose-only effect, or another doubt; inactive = no such curve, though single readings can be large or run the other way. Potencies of inconclusive entries are doubtful fits and often do not repeat. Where a SMILES comes first, the peptide text is derived from it. Bridges are numbered along the chain shown (N, C = ends). [ ]: non-standard residue; d: D form. The star is where a group is joined. ξ: configuration not given here. ξDab(CH2SO3H) = NC(CCNCS(=O)(=O)O)C(=O)O; Heptanoyl(6-Me) = CC(C)CCCCC(=O)*; Dab = NCC[CH](N)C(=O)O

Chains of the proteins cited; added tags and fusions are not shown. Lines headed by an entry give the natural chain unless they say otherwise; changes in a name come on top.
UniProt P11473: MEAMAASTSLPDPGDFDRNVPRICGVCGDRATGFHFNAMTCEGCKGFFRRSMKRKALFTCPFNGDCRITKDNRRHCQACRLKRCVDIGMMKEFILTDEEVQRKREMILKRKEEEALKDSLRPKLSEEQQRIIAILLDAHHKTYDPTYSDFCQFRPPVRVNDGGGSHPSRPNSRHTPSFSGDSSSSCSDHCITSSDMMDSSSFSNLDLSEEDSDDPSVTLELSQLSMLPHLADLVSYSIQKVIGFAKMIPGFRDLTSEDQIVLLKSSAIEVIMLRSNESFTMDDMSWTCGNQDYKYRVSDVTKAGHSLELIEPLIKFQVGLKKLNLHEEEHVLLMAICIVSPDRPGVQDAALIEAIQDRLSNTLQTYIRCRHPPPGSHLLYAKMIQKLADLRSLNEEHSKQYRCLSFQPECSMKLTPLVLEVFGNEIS

Each molecule was assayed against Vitamin D3 receptor (Homo sapiens) (UniProt P11473) (assay: Inhibitors of the vitamin D receptor (VDR): qHTS). Details: VDR-SRC2-3 peptide fluorescence polarization, 2 h; max response, negative = inhibition: active compounds read low.
How it was run: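 Fluorescence polarization assay measuring small-molecule disruption of VDR binding to the coregulator peptide SRC2-3. Compounds were pin-transferred (23 nl) into the reagent mix and incubated 2 h at room temperature before reading.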
% is set by controls: 0 for no effect and ±100 for the full control effect; potency is the fitted concentration of half-maximal effect.

| SMILES | max response, negative = inhibition | Potency |
| --- | --- | --- |
| Cc1cccc(N2CCN(c3ccc(NC(=O)c4ccccc4)cc3C(=O)O)CC2C)c1 (stereo not drawn) | inactive: -5.49% | – |
| O=C(Nc1cccc(C(=O)Nc2ccc(S(=O)(=O)O)c3cc(S(=O)(=O)O)cc(S(=O)(=O)O)c23)c1)Nc1cccc(C(=O)Nc2ccc(S(=O)(=O)O)c3cc(S(=O)(=O)O)cc(S(=O)(=O)O)c23)c1 | inactive: -3.16% and inactive: -23.2% | inconclusive: 44.7 µM [inhibitor, full curve] |
| Cc1ccc(C)c2[nH]c(=O)c(CN(Cc3cccnc3)C(=S)NCc3ccco3)cc12 | – | inconclusive: 79.4 µM [inhibitor, partial curve, poor fit] |
| O=C(C1CC1)N(Cc1nc2ccccc2c(=O)[nH]1)Cc1cccs1 | – | inconclusive: 25.1 µM [inhibitor, partial curve, poor fit] |
| CC(C)(C)c1cc(-c2csc(Nc3ccccc3)[n+]2Cc2ccc(C(=O)O)cc2)cc(C(C)(C)C)c1O | – | active: 79.4 µM |
| S=c1[nH]nc(-c2ccccc2)n1/N=C/c1ccc(Cl)cc1 | inactive: 2.76% | – |
| COc1ccc(OC)c(/C=C/C(=O)c2ccc(Cl)cc2)c1 | – | active: 44.7 µM |
| Clc1ccc(-c2ccc(CNCc3ccccn3)o2)cc1 | – | inconclusive: 89.1 µM [inhibitor, single point] |
| CCC(=O)Nc1cccc(C(=O)/C=C/c2ccc(F)cc2)c1 | – | inconclusive: 25.1 µM [inhibitor, partial curve, poor fit] |
| CCC1CC=CC2C1C(=O)N(Cc1ccccc1)C2c1ccoc1 (stereo not drawn) | – | active: 79.4 µM |
| O=C(O)CC(Cc1ccccc1)(C(=O)O)c1ccccc1 (stereo not drawn) | – | inconclusive: 79.4 µM [inhibitor, partial curve, poor fit] |
| Cc1noc(C)c1C(=O)N1CCC[C@@]2(CCN(c3cccc(-c4ccccc4)c3)C2)C1 | – | active: 39.8 µM |
| CC1(C)Cc2c(C#N)c(NCCc3ccccc3)nc(-c3ccco3)c2CO1 | – | inconclusive: 79.4 µM [inhibitor, single point] |
| S=c1[nH]c2ccccc2n1Cc1ccccc1 | – | inconclusive: 79.4 µM [inhibitor, partial curve, poor fit] |
| Cc1nnc(NN)n(N)c1=O | inactive: -7.73% | – |
| O=C(Nc1cc(Cl)ccc1O)C1CC(c2ccccc2O)=NO1 (stereo not drawn) | – | inconclusive: 89.1 µM [inhibitor, single point] |
| CN(CCOCCOc1ccc(Cl)cc1Br)Cc1ccccc1 | inactive: 2.16% | – |
| CCOC(=O)N1CCN(C(=O)CSc2nnc(-c3cccc(OC)c3)o2)CC1 | – | inconclusive: 3.16 µM [inhibitor, partial curve, poor fit] |
| CCOc1ccccc1NC(=O)c1c(NC(=O)CCC(=O)O)sc2c1CCCCC2 | – | inconclusive: 44.7 µM [inhibitor, partial curve] |
| CC(=O)N1CCC2(CCCN(c3ccccc3)C2)CC1 | – | inconclusive: 44.7 µM [inhibitor, partial curve, poor fit] |
| NC(=O)c1ccc(NC(=O)CSC2=Nc3ccccc3C3CC=NN23)cc1 (stereo not drawn) | – | inconclusive: 44.7 µM [inhibitor, partial curve] |

| SMILES | max response, negative = inhibition | Potency |
| --- | --- | --- |
| Cc1c(C(=O)N(C)Cc2nc3ccccc3c(=O)[nH]2)oc2ccccc12 | inactive: -14% | – |
| CCOC(=O)c1c(-c2ccccc2)oc2ccc(OCC(O)CN(C)C)cc12 (stereo not drawn) | inactive: 12.5% | – |
| CC(=O)O[C@@H]1C(CO[Si](C)(C)C(C)(C)C)=C(Br)C(=O)[C@@H]2O[C@]12C | – | active: 25.1 µM |
| Cc1cc(C)nc(NC2=NCCN2C(=S)Nc2ccc(C)c(C)c2)n1 | – | inconclusive: 70.8 µM [inhibitor, partial curve, poor fit] |
| COc1ccc(C(=O)Nc2cc(OC)c(Cl)cc2OC)cc1 | – | inconclusive: 100 µM [inhibitor, single point] |
| Cc1cc(OCC(=O)N(Cc2ccccc2)C2CCS(=O)(=O)C2)ccc1Cl (stereo not drawn) | inactive: 4.36% | – |
| Clc1ccccc1/C=C/c1ccnc2ccccc12 | – | inconclusive: 50.1 µM [inhibitor, partial curve, poor fit] |
| O=C1/C(=C\c2ccc(O)cc2)CCC1CNc1ccc(Cl)cc1 (stereo not drawn) | – | active: 79.4 µM |
| Cc1cc(C)c2c(N)c(C(=O)NCC3CCCCC3)sc2n1 | inactive: 7.64% | – |
| CNc1nc(-c2cccc(NS(C)(=O)=O)c2)nc2ccccc12 | – | active: 44.7 µM |
| CCOc1ccc(-n2cc(C(=O)Nc3ccccc3OCC)c3cc(OC)c(OC)cc3c2=O)cc1 | inactive: -3.34% | – |
| O=C(Cn1cc(C(=S)N2CCOCC2)c2ccccc21)N1CCOCC1 | inactive: 1.09% | – |
| COc1ccc(C(=O)Nc2ccccc2C(=O)NC(C)C)cc1OC | – | inconclusive: 50.1 µM [inhibitor, partial curve] |
| CCOC(=O)C1=C(C)N=c2s/c(=C/c3ccc(OCC(=O)O)cc3)c(=O)n2C1c1ccc(F)cc1 (stereo not drawn) | – | active: 70.8 µM |
| CC12CCC=CC1C(c1ccc(Br)cc1F)N(Cc1ccccc1)C2=O (stereo not drawn) | – | inconclusive: 79.4 µM [inhibitor, partial curve, poor fit] |
| Nc1cc(S(=O)(=O)Nc2ccc(Cl)cc2)ccc1N1CCOCC1 | – | inconclusive: 79.4 µM [inhibitor, partial curve, poor fit] |
| O=C(/C=C/c1ccc(N2CCCCC2)c([N+](=O)[O-])c1)c1ccc(O)cc1 | – | inconclusive: 20 µM [inhibitor, partial curve, poor fit] |
| Cc1cc(C2=NNC(=NC3CC3)SC2)c(C)n1Cc1ccco1 | – | inconclusive: 14.1 µM [inhibitor, full curve] |
| C=CCOc1c(Br)cc(/C=C2/C(=O)ON=C2C)cc1OC | – | active: 44.7 µM |
| Ic1ccc(N2CCN(Cc3c[nH]c4ncccc34)CC2)cc1 | – | inconclusive: 100 µM [inhibitor, partial curve, poor fit] |
| Cc1ccc(C(=O)c2c(C)oc3c2C(=O)C(=O)c2ccccc2-3)cc1 | – | active: 3.55 µM |

| SMILES | max response, negative = inhibition | Potency |
| --- | --- | --- |
| CCC(C)C1NC(=O)C(CCNCS(=O)(=O)O)NC(=O)C(NC(=O)C(CCNCS(=O)(=O)O)NC(=O)C(NC(=O)C(CCNCS(=O)(=O)O)NC(=O)CCCCC(C)C)C(C)O)CCNC(=O)C(C(C)O)NC(=O)C(CCNCS(=O)(=O)O)NC(=O)C(CCNCS(=O)(=O)O)NC(=O)C(C(C)CC)NC1=O (stereo not drawn) ({Heptanoyl(6-Me)}-[ξDab(CH2SO3H)]T[ξDab(CH2SO3H)][Dab][ξDab(CH2SO3H)]II[ξDab(CH2SO3H)][ξDab(CH2SO3H)]T; lactam 4-C; configuration not given here) | – | inconclusive: 50.1 µM [inhibitor, partial curve] |
| COC(=O)c1ccccc1NC(=O)CN(c1ccccc1OC)S(C)(=O)=O | inactive: -6.59% | – |
| Cc1ccc(NC(=O)CSc2nc(-c3ccc(F)cc3)nc3c2Cc2c(CO)cnc(C)c2O3)cc1C | inactive: -7.67% | – |
| O=C(COc1ccc(Cl)cc1)Nc1sc2c(c1C(=O)Nc1cccc(Cl)c1)CCCC2 | – | inconclusive: 17.8 µM [inhibitor, full curve] |
| COC(=O)CCC(=O)NC1CC(C)(C)Cc2c1cnn2-c1ccccc1 (stereo not drawn) | – | inconclusive: 89.1 µM [inhibitor, partial curve, poor fit] |
| COc1ccccc1NC(=O)CN1CCN(c2ccc(F)cc2)CC1 | – | inconclusive: 10 µM [inhibitor, full curve, poor fit] |
| CC(=O)N1c2ccc(S(=O)(=O)NCC3CCC(C(=O)N4CCCC(C)C4)CC3)cc2CC1C (stereo not drawn) | – | inconclusive: 39.8 µM [inhibitor, partial curve, poor fit] |
| COc1cc(/C=N\Nc2nc(-c3ccc(C)cc3)c(NC(C)=O)s2)ccc1O | – | inconclusive: 28.2 µM [inhibitor, partial curve, poor fit] |
| CN1CCN(CC(O)COCCOc2ccc(Br)cc2)CC1 (stereo not drawn) | – | active: 25.1 µM |
| O=C(Oc1ccc([N+](=O)[O-])cc1)c1cncc(Br)c1 | – | inconclusive: 89.1 µM [inhibitor, single point] |
| CCOc1ccc(N2C(=O)CC(NCc3ccc(S(N)(=O)=O)cc3)C2=O)cc1 (stereo not drawn) | – | inconclusive: 28.2 µM [inhibitor, partial curve, poor fit] |
| Nc1ccccc1C(O)(Cc1ccccc1)c1ccccc1 (stereo not drawn) | – | inconclusive: 89.1 µM [inhibitor, single point] |
| CCN(CC)CCNC(=O)c1cc2c(=O)n(C)c3ccccc3c2n1C | – | inconclusive: 100 µM [inhibitor, partial curve, poor fit] |
| CSc1cccc(NC(=S)N(C(C)C)C(C)c2ccccn2)c1 (stereo not drawn) | – | inconclusive: 56.2 µM [inhibitor, single point] |
| O=C(COC(=O)c1cc(-c2ccc(Cl)s2)nc2ccccc12)NCc1ccco1 | – | active: 79.4 µM |
| CCOc1ccc(OCC)c(NC(=O)CCc2nc3cccnc3n2-c2ccccc2)c1 | inactive: -9.76% | – |
| COc1ccc(N2C(=O)/C(=C/c3ccc([N+](=O)[O-])cc3)C=C2c2ccccc2)cc1 | – | inconclusive: 50.1 µM [inhibitor, partial curve, poor fit] |
| COc1cccc(CN(Cc2cccnc2)S(=O)(=O)c2ccc(-n3cnnn3)c(C)c2)c1 | inactive: 3.28% | – |
| CCCOc1ccc(CNC(=O)C2CCCN(c3nc4c(C)cc(C)cc4s3)C2)cc1 (stereo not drawn) | inactive: -0.546% | – |
| Cc1ccccc1C(=O)Nc1nnc(S(=O)(=O)N(C)Cc2ccco2)s1 | – | inconclusive: 79.4 µM [inhibitor, single point] |

A second format for some results above:
SMILES | max response, negative = inhibition | Potency
Nc1ccccc1C(O)(Cc1ccccc1)c1ccccc1 (stereo not drawn) | – | inconclusive: 89.1 µM [inhibitor, single point]
CCN(CC)CCNC(=O)c1cc2c(=O)n(C)c3ccccc3c2n1C | – | inconclusive: 100 µM [inhibitor, partial curve, poor fit]
